Data: US20170165365A1 (SYMPHOGEN A S, published 2017)
No constants are given. Whether binding was seen depends on the method and setting. Some binding calls cover weakened binding; strength is not graded here.

Amino acid sequences for entries named in this document (tags omitted). A change or cut given only in a name is not applied to a line headed by its entry. Chains listed by the source or under a name are the forms on record and can include a tag or linker. Residues count along the entry.
UniProt P21860, residues 20-643: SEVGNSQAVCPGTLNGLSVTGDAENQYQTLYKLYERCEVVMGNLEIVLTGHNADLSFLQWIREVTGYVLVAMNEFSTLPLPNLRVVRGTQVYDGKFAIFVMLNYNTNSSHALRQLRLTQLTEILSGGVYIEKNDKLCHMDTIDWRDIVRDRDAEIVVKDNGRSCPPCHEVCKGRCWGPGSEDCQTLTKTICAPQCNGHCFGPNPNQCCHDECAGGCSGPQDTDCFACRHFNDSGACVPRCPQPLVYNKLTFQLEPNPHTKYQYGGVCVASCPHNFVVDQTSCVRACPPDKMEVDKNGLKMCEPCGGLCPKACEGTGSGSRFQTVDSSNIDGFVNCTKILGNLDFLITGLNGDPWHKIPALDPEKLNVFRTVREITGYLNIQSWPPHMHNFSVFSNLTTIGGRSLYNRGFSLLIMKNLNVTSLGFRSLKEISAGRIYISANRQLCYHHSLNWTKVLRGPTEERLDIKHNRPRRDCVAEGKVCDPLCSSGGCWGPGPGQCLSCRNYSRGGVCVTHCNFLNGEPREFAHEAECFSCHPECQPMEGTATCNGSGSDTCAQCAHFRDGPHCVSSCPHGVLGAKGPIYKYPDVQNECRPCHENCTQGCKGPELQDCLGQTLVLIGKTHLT
cynomolgus HER3 antigen (G7PIG5, form named): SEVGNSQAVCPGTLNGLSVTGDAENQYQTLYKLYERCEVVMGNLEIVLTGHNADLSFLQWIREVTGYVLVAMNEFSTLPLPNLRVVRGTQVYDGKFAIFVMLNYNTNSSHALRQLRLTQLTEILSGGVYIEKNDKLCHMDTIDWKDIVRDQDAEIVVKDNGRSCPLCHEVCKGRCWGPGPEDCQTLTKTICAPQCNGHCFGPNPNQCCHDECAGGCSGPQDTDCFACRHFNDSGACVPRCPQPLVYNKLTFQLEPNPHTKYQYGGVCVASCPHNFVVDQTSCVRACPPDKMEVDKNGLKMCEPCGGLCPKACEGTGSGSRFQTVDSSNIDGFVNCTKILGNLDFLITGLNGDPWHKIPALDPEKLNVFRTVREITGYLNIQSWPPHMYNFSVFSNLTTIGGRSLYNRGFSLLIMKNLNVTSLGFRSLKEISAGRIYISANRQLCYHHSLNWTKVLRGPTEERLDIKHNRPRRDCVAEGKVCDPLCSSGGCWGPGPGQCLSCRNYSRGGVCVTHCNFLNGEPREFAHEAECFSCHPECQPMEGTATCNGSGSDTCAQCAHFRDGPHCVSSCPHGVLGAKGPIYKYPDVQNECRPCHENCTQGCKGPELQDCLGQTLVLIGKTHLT

Assays:
[1] = target: cynomolgus EGFR antigen (cynomolgus monkey); experiment: ELISA, coated cy EGFR, 40 nM antibody, OD450
[2] = target: T1, human HER3 antigen (Sino Biologicals) (human, UniProt P21860 20-643); experiment: ELISA, coated hu HER3, 40 nM antibody, OD450
T1 construct: Bought soluble antigen; also called human antigen

[3] = target: cynomolgus HER3 antigen (cynomolgus monkey) (UniProt G7PIG5); experiment: ELISA, coated cy HER3, 40 nM antibody, OD450
[4] = target: cynomolgus HER3 antigen (cynomolgus monkey) (UniProt G7PIG5); experiment: ELISA on coated antigen (cross-reactivity) and SPR, summary
[5] = target: cynomolgus HER3 antigen (cynomolgus monkey) (UniProt G7PIG5); experiment: ELISA, coated antigen, antibody in solution

B1: chimeric anti-EGFR antibody 1565 (antibody, V domains shown)
VH: EVQLQQSGTELVKPGASVILSCKASGYTFTSYWMQWVKQRPGQGLEWIGNINPSNGGTSFNEEFKSRATLTVDKSSSTAYMQLSSLTSEDSAVYYCARDGGLYDGYYFDFWGQGTTLTVS
VL: NIVMTQSHKFMSTLIGARVSITCKASQDVDTAVAWYQQKPGQSPKLLIYWASTRHTGVPDRFTGSGSGTDFSLTVSNVQSEDLTDYFCQQYSSYPLTFGAGTKLELKR
notes: light chain entry is full length
With B1 the binding [1] was “binds”.

B2: chimeric anti-HER3 antibody 5038 (antibody, V domains shown)
VH: EVKLVESGPGLVKPSQSLSLTCSVTGYSITSGFYWTWIRQFPGNKLEWMGFISYDGSNNYNPSLKNRISITRDTSKNQFFLKLNSVTTEDTATYYCARGGGYYGNLFDYWGQGTTLTVS
VL: DIVMTQTTSSLSASLGDRVTISCRPSQDISNYVNWFQQKPGGTVKLLIFHTSRLHSGVPSRFSGSGSGTDYSLTISTLEQEDIAIYFCQQGITLPWTFGGGTKLEIKR
notes: as for B1
For B2, the binding [2] was “binds” and the binding [3] was “binds”.

B3: humanized anti-HER3 antibody 10810 (antibody, V domains shown)
VH: QVQLQESGPGLVKPSQTLSLTCTVSGYSITSGFYWTWIRQHPGNGLEWIGFISYSGSNNYNPSLKNRVTISVDTSKNQFSLKLSSVTAADTATYYCARGGGYYGNLFDYWGQGTLVTVSS
VL: DIQMTQSPSSLSASVGDRVTITCRPSQDISNYVNWFQQKPGKAPKLLIFHTSRLHSGVPSRFSGSGSGTDFTLTISSLQPEDIATYYCQQGITLPWTFGQGTKVEIK
With B3 the binding [4] was “binds”, the binding [5] was “binds” and the binding [3] was “binds”.

B4: chimeric anti-HER3 antibody 5082 (antibody, V domains shown)
VH: EVQLKESGPGLVKPSQSLSLTCSVTGYSITSAYYWNWIRQFPGNKVEWMGYIGYDGRNTYNPSLKNRISITRDTSKNQFFLKLNSLTTEDTATYYCSREGDYGYSDYWGQGTTLTVS
VL: DIVMTQATSSLSASLGDRVTVSCRASQDINNYLNWYQQKPDGTVKLLIYYTSRLQSGVPSRFSGSGSGIDYSLTISNLEQEDFVTYFCQQSETLPWTFGGGTKLELKR
notes: as for B1
In the case of B4, the binding [2] is reported as “binds” and the binding [3] is reported as “binds”.

B5: humanized anti-HER3 antibody 11006 (antibody, V domains shown)
VH: QVQLQESGPGLVKPSQTLSLTCTVSGYSITSAYYWNWIRQHPGKGVEWMGYIGYSGRNTYNPSLKNRVTISRDTSKNQFSLKLSSVTAADTAVYYCSREGDYGYSDYWGQGTLVTVSS
VL: DIQMTQSPSSLSASVGDRVTVTCRASQDTNNYLNWYQQKPGKAVKLLIYYTSRLQSGVPSRFSGSGSGTDFTLTISSLQPEDFATYFCQQSETLPWTFGQGTKVEIK
For B5, the binding [4] was “binds”, the binding [5] was “binds” and the binding [3] was “binds”.

B6: humanized anti-HER3 antibody 11052 (antibody, V domains shown)
VH: QVQLQESGPGLVKPSQTLSLTCTVSGYSITSAYYWNWIRQFPGKGVEWMGYIGYSGRNTYNPSLKNRVTISRDTSKNQFSLKLSSVTAADTAVYYCSREGDYGYSDYWGQGTLVTVSS
VL: DIQMTQSPSSLSASVGDRVTVTCRASQDINNYLNWYQQKPGKAVKLLIYYTSRLQSGVPSRFSGSGSGTDYTLTISSLQPEDFATYFCQQSETLPWTFGQGTKLEIK
With B6 the binding [4] was “binds”, the binding [5] was “binds” and the binding [3] was “binds”.
